Among the data in paper PMC6362308 are binding values, retold here.

In assay [1] the target is taxol-stabilized microtubules. Description: co-sedimentation; as a1, in the presence or absence of 2 uM importin α, 2 uM importin β and 5 uM RanGTP (Fig 1A); only the target purified.
Assay [2] deals with taxol-stabilized microtubules. Description: co-sedimentation; HeLa nuclear extract (1 mg/ml in CSF-XB) incubated 15 min at RT with 2 uM taxol-stabilized microtubules, centrifuged at 100,000 g; MAPs eluted from the pellet with 500 mM NaCl and immunoblotted (Fig 1A), or pellets immunoblotted (Fig S1A); only the target purified. For orientation: In western blotting, separated proteins are transferred to a membrane and probed.

Results are given in words; binding and its absence hold for the method and conditions named. Binding seen in cells or lysates may run through a third protein. A result given as binding can be weak or reduced; the word gives no strength.

B1: Endogenous human RECQL4 (RecQ-like helicase 4) in HeLa nuclear extract (protein, UniProt O94761 1-1208)
chain: MERLRDVRERLQAWERAFRRQRGRRPSQDDVEAAPEETRALYREYRTLKRTTGQAGGGLRSSESLPAAAEEAPEPRCWGPHLNRAATKSPQSTPGRSRQGSVPDYGQRLKANLKGTLQAGPALGRRPWPLGRASSKASTPKPPGTGPVPSFAEKVSDEPPQLPEPQPRPGRLQHLQASLSQRLGSLDPGWLQRCHSEVPDFLGAPKACRPDLGSEESQLLIPGESAVLGPGAGSQGPEASAFQEVSIRVGSPQPSSSGGEKRRWNEEPWESPAQVQQESSQAGPPSEGAGAVAVEEDPPGEPVQAQPPQPCSSPSNPRYHGLSPSSQARAGKAEGTAPLHIFPRLARHDRGNYVRLNMKQKHYVRGRALRSRLLRKQAWKQKWRKKGECFGGGGATVTTKESCFLNEQFDHWAAQCPRPASEEDTDAVGPEPLVPSPQPVPEVPSLDPTVLPLYSLGPSGQLAETPAEVFQALEQLGHQAFRPGQERAVMRILSGISTLLVLPTGAGKSLCYQLPALLYSRRSPCLTLVVSPLLSLMDDQVSGLPPCLKAACIHSGMTRKQRESVLQKIRAAQVHVLMLTPEALVGAGGLPPAAQLPPVAFACIDEAHCLSQWSHNFRPCYLRVCKVLRERMGVHCFLGLTATATRRTASDVAQHLAVAEEPDLHGPAPVPTNLHLSVSMDRDTDQALLTLLQGKRFQNLDSIIIYCNRREDTERIAALLRTCLHAAWVPGSGGRAPKTTAEAYHAGMCSRERRRVQRAFMQGQLRVVVATVAFGMGLDRPDVRAVLHLGLPPSFESYVQAVGRAGRDGQPAHCHLFLQPQGEDLRELRRHVHADSTDFLAVKRLVQRVFPACTCTCTRPPSEQEGAVGGERPVPKYPPQEAEQLSHQAAPGPRRVCMGHERALPIQLTVQALDMPEEAIETLLCYLELHPHHWLELLATTYTHCRLNCPGGPAQLQALAHRCPPLAVCLAQQLPEDPGQGSSSVEFDMVKLVDSMGWELASVRRALCQLQWDHEPRTGVRRGTGVLVEFSELAFHLRSPGDLTAEEKDQICDFLYGRVQARERQALARLRRTFQAFHSVAFPSCGPCLEQQDEERSTRLKDLLGRYFEEEEGQEPGGMEDAQGPEPGQARLQDWEDQVRCDIRQFLSLRPEEKFSSRAVARIFHGIGSPCYPAQVYGQDRRFWRKYLHLSFHALVGLATEELLQVAR
As for B1, the binding entry in assay [1] and in assay [2] was “binds” throughout.
